According to PubChem BioAssay AID2685 (National Center for Advancing Translational Sciences (NCATS), 2010):
The whole screen tested about 320,000 compounds, of which about 2,100 (0.66%) were called active. Inconclusive means that the source gave no clear call. Such entries were picked first, then a sample of the others. Calls come from the whole dose curve; as a rule, active = well fitted inhibition curve with a large enough effect in the signal ratio, with a control signal flat (not every such curve was filed as active); inconclusive = small, poorly fitted or top-dose-only effect, or effect the other way, or a change in a side signal; inactive = flat fitted curve, though single readings scatter; the % refers to the signal ratio. Potencies beside an inconclusive call are fits to weak or partial responses and may not hold up.

Assay: qHTS Assay for Lipid Storage Modulators in Drosophila S3 Cells
Conditions: BODIPY lipid droplet fluorescence, 18-24 h, cells fed with added oleic acid; lipid storage change, negative = inhibition: at 46.1 µM (top of the series) unless noted
Summary of the method: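 Drosophila S3 cells got compounds at several concentrations plus oleic acid (400 uM solution). Laser-scanning cytometry with 488 nm excitation read lipid droplets at 500-530 nm and cells at 575-640 nm. Percent activity was relative to 20 uM Triacsin C.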
% is set by controls: 0 for no effect and ±100 for the full control effect; potency is the fitted concentration of half-maximal effect.

Q: With `COc1cc(C)c(Cl)cc1S(=O)(=O)n1ccnc1C` as the compound, how does the lipid storage change, negative = inhibition read?
A: inconclusive: 34.8%

Q: For `CCOC(=O)C1=C(C)Nc2ccccc2N=C1NC(=O)c1cccc(S(=O)(=O)N(C)C)c1`, which Potency is on record?
A: inconclusive: 1160 nM [falling, full curve]

Q: Which lipid storage change, negative = inhibition does the source give for `NC(=O)c1nsc(C(=O)N(Cc2cccnc2)C(C(=O)NCc2ccc(F)cc2)c2ccc(O)cc2)c1N` (centres undefined) here?
A: inconclusive: -114%

Q: For `CCCCN1C(=O)C(=O)N(CC(=O)N2CCc3ccccc32)C1=O`, which lipid storage change, negative = inhibition is on record?
A: inconclusive: -5.36%

Q: Which Potency does the source give for `CC1CCN(c2ccc(NC(=O)c3ccc([N+](=O)[O-])o3)cc2)CC1` here?
A: active: 16400 nM

Q: For `Cc1cc(-n2[nH]c(C)c(C)c2=O)nc(-c2ccccc2O)n1`, which Potency is on record?
A: inconclusive: 6510 nM [activator, single point]

Q: For `CCCNc1c(NC(=O)c2ccc3c(c2)OCO3)c(=O)oc2ccccc12`, which lipid storage change, negative = inhibition is on record?
A: inconclusive: -80.3%

Q: For `O=C1CC(c2ccc3c(c2)OCCO3)Oc2ccccc21` (centres undefined), which lipid storage change, negative = inhibition is on record?
A: inactive

Q: For `Cc1ccc(Cn2c(SCCN3CCOCC3)nc3c2c(=O)n(C)c(=O)n3C)cc1`, which lipid storage change, negative = inhibition is on record?
A: inconclusive: 19.2%

Q: Which lipid storage change, negative = inhibition does the source give for `CN(CC(=O)Nc1cccc(F)c1)C(=O)c1sc2ccccc2c1Cl` here?
A: inconclusive: -0.421%

Q: With `Cn1c(SCC(=O)N/N=C/C=C/c2ccccc2[N+](=O)[O-])nc2ccccc21` as the compound, how does the lipid storage change, negative = inhibition read?
A: inconclusive: 19.3%

Q: With `O=C(c1ccco1)N(Cc1ccco1)c1ccc(O)cc1` as the compound, how does the lipid storage change, negative = inhibition read?
A: inconclusive: 11.2%

Q: For `Cc1ccc(-c2nc(CS(=O)(=O)CC(=O)Nc3cc(F)ccc3F)c(C)o2)cc1`, which Potency is on record?
A: inconclusive: 411 nM [activator, single point]

Q: Which lipid storage change, negative = inhibition does the source give for `COCCCNC(=O)c1cccn2c(=O)c3cc4ccccc4cc3nc12` here?
A: inconclusive: -99.8%

Q: For `COC(=O)CCCn1c(C)cc(C(=O)CCl)c1C`, which lipid storage change, negative = inhibition is on record?
A: inconclusive: -37.7%

Q: For `CC(C)c1ccc(/C=C2\C(=N)N3N=C(CC(=O)N4CCCCC4)SC3=NC2=O)cc1`, which Potency is on record?
A: inconclusive: 326 nM [activator, full curve, poor fit]

Q: With `COc1ccc(CCNC(=O)CSc2nnnn2Cc2ccc3c(c2)OCO3)cc1OC` as the compound, how does the lipid storage change, negative = inhibition read?
A: inconclusive: -1.58%

Q: For `CC(=O)c1cc(CC=C(C)C)c(O)c(CC=C(C)C)c1O`, which lipid storage change, negative = inhibition is on record?
A: inconclusive: -0.447%

Q: For `CCOc1ccccc1NC(=O)CSc1nc2cccnc2n1C`, which lipid storage change, negative = inhibition is on record?
A: inconclusive: 18.9%

Q: Which Potency does the source give for `C/C(=N\Nc1ccc([N+](=O)[O-])cc1[N+](=O)[O-])C(C)C(C)C` (centres undefined) here?
A: inconclusive: 13000 nM [cytotoxic, partial curve]

Q: For `Cc1ccccc1NC(=O)COC(=O)c1n[nH]c(=O)c2ccccc12`, which lipid storage change, negative = inhibition is on record?
A: inconclusive

Q: For `COc1ccc(OC)c(NC(=O)CC(NCCC2=CCCCC2)C(=O)O)c1` (centres undefined), which Potency is on record?
A: active: 4610 nM

Q: For `O=C(COC(=O)Cn1cnc2ccccc21)NCCC1=CCCCC1`, which lipid storage change, negative = inhibition is on record?
A: inactive

Q: With `CCC(=O)Nc1ccc2nc(C)n(CC(=O)Nc3ccccc3)c(=O)c2c1` as the compound, how does the lipid storage change, negative = inhibition read?
A: inconclusive: 31.5%

Q: With `COC(=O)CCC(=O)OC1(C)C(=O)C=C2C=C(C3CC3)N(C3CC3)C=C2C1=O` (centres undefined) as the compound, how does the lipid storage change, negative = inhibition read?
A: inconclusive: -5.46%

Q: Which Potency does the source give for `O=C(CSc1nnc(Cc2ccccc2)o1)Nc1cccc(F)c1` here?
A: inconclusive: 580 nM [activator, full curve, poor fit]

Q: Which lipid storage change, negative = inhibition does the source give for `Cc1nc(SCn2nnc3ccccc3c2=O)nc(C)c1C` here?
A: inconclusive: 15.4%

Q: For `Cc1cccc(Nc2nnc(SC/C(O)=C(\C#N)c3nc4ccccc4[nH]3)s2)c1C`, which lipid storage change, negative = inhibition is on record?
A: inconclusive: 20.7%

Q: With `CCOCN(C(=O)Cn1c(COC)nc2ccccc21)c1c(C)cccc1CC` as the compound, how does the Potency read?
A: inconclusive: 1640 nM [rising, partial curve]

Q: Which lipid storage change, negative = inhibition does the source give for `O=C1C2=C(c3ccccc31)[N+](=O)C1CCCCC1N2[O-]` (centres undefined) here?
A: inconclusive: 8.12%

Q: With `CCOC(=O)C1CCCN(C(=O)CCCn2c(=O)c3cccn3c3cccnc32)C1` (centres undefined) as the compound, how does the Potency read?
A: inconclusive: 29100 nM [activator, single point]

Q: Which lipid storage change, negative = inhibition does the source give for `O=C(Cc1ccccc1)Nc1ccc(-c2nnc(-c3ccco3)o2)cc1` here?
A: inconclusive: -0.677%

Q: Which lipid storage change, negative = inhibition does the source give for `COC(=O)CSc1nnc(-c2ccncc2)o1` here?
A: inconclusive: -3.13%

Q: For `COCCn1cnnc1SCC(=O)Nc1cc(OC)c([N+](=O)[O-])cc1C`, which lipid storage change, negative = inhibition is on record?
A: inconclusive: 30.9%

Q: With `O=C(c1ccc2ccccc2c1)N1CCN(c2ccccc2)CC1` as the compound, how does the Potency read?
A: inconclusive: 651 nM [activator, single point]

Q: For `COc1cccc(NC(=O)CN(C)C(=O)c2ccc(S(=O)(=O)Nc3ccccc3F)cc2)c1`, which Potency is on record?
A: inconclusive: 41.1 nM [falling, full curve, poor fit]

Q: With `CCOC(=O)NC(=O)CSc1ccc(C)cc1C` as the compound, how does the Potency read?
A: inconclusive: 51.7 nM [falling, partial curve, poor fit]

Q: Which Potency does the source give for `Cc1ccc(N=CC=C2OC(C)(C)C(C)(C)O2)cc1` here?
A: inconclusive: 29100 nM [falling, single point]

Q: With `Cc1nnc(N2CCc3ccccc3C2)[nH]c1=O` as the compound, how does the lipid storage change, negative = inhibition read?
A: inconclusive: -0.297%

Q: Which lipid storage change, negative = inhibition does the source give for `O=C(CSc1nc2ccccc2s1)N1CCOCC1` here?
A: inconclusive: 42.2%

Q: Which lipid storage change, negative = inhibition does the source give for `CC12CCC(=O)N1C(C(=O)OCc1c(Cl)cccc1Cl)CS2` (centres undefined) here?
A: inconclusive: -53%

Q: Which Potency does the source give for `CCCn1c(C(C)C)n[nH]c1=S` here?
A: inconclusive: 5800 nM [falling, full curve, poor fit]

Q: Which lipid storage change, negative = inhibition does the source give for `CCC(C)(C)NC(=O)C(c1cccn1C)N(C(=O)Cn1nnc2ccccc21)c1ccccc1OC` (centres undefined) here?
A: inconclusive: 9.7%

Q: Which lipid storage change, negative = inhibition does the source give for `CCCOc1ccc(C(=O)Nc2ccc(NC(=O)c3cccs3)cc2)cc1` here?
A: inconclusive: 23.2%

Q: For `C#Cc1ccc([C@@H]2C=C(C(=O)OCC=C)O[C@H](OCc3ccc(CO)cc3)C2)cc1`, which lipid storage change, negative = inhibition is on record?
A: inconclusive: 14.9%

Q: With `Cc1ccc(CNC(=O)c2ccc(N3CCC4(CC3)CC(c3cccc(Br)c3)=NO4)c(NC(=O)c3ccccc3)c2)cc1` as the compound, how does the Potency read?
A: inconclusive: 231 nM [falling, full curve, poor fit]

Q: Which lipid storage change, negative = inhibition does the source give for `CC(=O)Cc1ccccc1OCC(=O)O` here?
A: inconclusive: -64.5%

Q: For `Cc1ccccc1-n1c(SCC(=O)N2CCOCC2)nc(O)c(Cc2ccccc2)c1=O`, which lipid storage change, negative = inhibition is on record?
A: inactive

Q: With `O=C(NCC1(N2CCOCC2)CCCCC1)c1ccc(Cl)c(S(=O)(=O)NCc2ccco2)c1` as the compound, how does the lipid storage change, negative = inhibition read?
A: inconclusive: -7.67%
